Measurements reported in PubChem BioAssay AID1159578 (Peter MacCallum Cancer Centre, 2015).

- Aim: 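Knock-downs that alter how fast lymphatic endothelial cells migrate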 (primary screen)
- Cells: human lymphatic endothelial cells
- Reagent: siRNA pool against human genes, 40 nM
- Timing: 48 h after transfection
- Detection: 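Cells stained with dye and imaged after a scratch; covered wound area and nuclei counted, duplicates averaged, migration set against mock wells and turned into a robust z-score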
- Scale: migration robust z-score: higher = faster migration into the scratch; nuclei per well: higher = more cells in the well
- Rule for the call: 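Pools averaging fewer than 3300 nuclei are never called; remaining pools count as changed when migration robust z lies outside -2 to 2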
- Calls: active = migration changed; inactive = no migration change, or too few cells
In all, the deposit lists about 18,000 reagents; shown is a part drawn at random. Over the whole deposit, about 1,030 (5.7%) got an active call. 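Inactive calls also include pools with fewer than 3300 nuclei, whose migration was not assessed.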 Raw values vary from plate to plate and are shown uncorrected. Further read-outs or replicates are left out here.

Depletion of RNPC3 (GeneID 55599) gave: migration robust z-score 1.02; migration class with cell-count check migration z between -2 and 2; enough cells; nuclei per well, duplicate mean 6628; inactive.
Silencing of ALYREF (GeneID 10189) came out at: migration robust z-score -0.46; migration class with cell-count check migration z between -2 and 2; enough cells; nuclei per well, duplicate mean 5380; inactive.
Against MAST4 (GeneID 375449), the entry reads migration robust z-score 0.39; migration class with cell-count check migration z between -2 and 2; enough cells; nuclei per well, duplicate mean 4688; inactive.
After knock-down of SMPD2 (GeneID 6610) the results were migration robust z-score -0.26; migration class with cell-count check migration z between -2 and 2; enough cells; nuclei per well, duplicate mean 3994; inactive.
NR1H2 (GeneID 7376) showed migration robust z-score 0.26; migration class with cell-count check migration z between -2 and 2; enough cells; nuclei per well, duplicate mean 5279; inactive.
Silencing of KLHL35 (GeneID 283212) gave: migration robust z-score 0.94; migration class with cell-count check migration z between -2 and 2; enough cells; nuclei per well, duplicate mean 5720; inactive.
With knock-down of YEATS2 (GeneID 55689), the record shows migration robust z-score -0.45; migration class with cell-count check migration z between -2 and 2; enough cells; nuclei per well, duplicate mean 5695; inactive.
After knock-down of VWA7 (GeneID 80737), the screen gave migration robust z-score 0.48; migration class with cell-count check migration z between -2 and 2; enough cells; nuclei per well, duplicate mean 6214; inactive.
With knock-down of UCP3 (GeneID 7352), the screen gave migration robust z-score 0.1; migration class with cell-count check migration z between -2 and 2; enough cells; nuclei per well, duplicate mean 7553; inactive.
For C6orf118 (GeneID 168090), the entry reads migration robust z-score 2.18; migration class with cell-count check migration z above 2; enough cells; nuclei per well, duplicate mean 5410; active.
Against TGFB2 (GeneID 7042), the values are migration robust z-score 0.52; migration class with cell-count check migration z between -2 and 2; enough cells; nuclei per well, duplicate mean 6364; inactive.
For MDGA2 (GeneID 161357), the values are migration robust z-score 0.56; migration class with cell-count check migration z between -2 and 2; enough cells; nuclei per well, duplicate mean 4943; inactive.
Against NF2 (GeneID 4771), the entry reads migration robust z-score -0.4; migration class with cell-count check migration z between -2 and 2; enough cells; nuclei per well, duplicate mean 4931; inactive.
Depletion of ZNF619 (GeneID 285267) gave: migration robust z-score -1.49; migration class with cell-count check migration z between -2 and 2; enough cells; nuclei per well, duplicate mean 5404; inactive.
